Data taken from PMC13383472.
These are yes or no findings as the source states them, for the method shown. Binding seen in cells or lysates may run through a third protein. Some binding calls cover weakened binding; strength is not graded here.

By UniProt entry, the sequences of proteins in these tests, tags left out. Where a name states a change or a piece, a line headed by the entry shows the natural chain unless it says otherwise. Residues count along the entry.
UniProt P13612: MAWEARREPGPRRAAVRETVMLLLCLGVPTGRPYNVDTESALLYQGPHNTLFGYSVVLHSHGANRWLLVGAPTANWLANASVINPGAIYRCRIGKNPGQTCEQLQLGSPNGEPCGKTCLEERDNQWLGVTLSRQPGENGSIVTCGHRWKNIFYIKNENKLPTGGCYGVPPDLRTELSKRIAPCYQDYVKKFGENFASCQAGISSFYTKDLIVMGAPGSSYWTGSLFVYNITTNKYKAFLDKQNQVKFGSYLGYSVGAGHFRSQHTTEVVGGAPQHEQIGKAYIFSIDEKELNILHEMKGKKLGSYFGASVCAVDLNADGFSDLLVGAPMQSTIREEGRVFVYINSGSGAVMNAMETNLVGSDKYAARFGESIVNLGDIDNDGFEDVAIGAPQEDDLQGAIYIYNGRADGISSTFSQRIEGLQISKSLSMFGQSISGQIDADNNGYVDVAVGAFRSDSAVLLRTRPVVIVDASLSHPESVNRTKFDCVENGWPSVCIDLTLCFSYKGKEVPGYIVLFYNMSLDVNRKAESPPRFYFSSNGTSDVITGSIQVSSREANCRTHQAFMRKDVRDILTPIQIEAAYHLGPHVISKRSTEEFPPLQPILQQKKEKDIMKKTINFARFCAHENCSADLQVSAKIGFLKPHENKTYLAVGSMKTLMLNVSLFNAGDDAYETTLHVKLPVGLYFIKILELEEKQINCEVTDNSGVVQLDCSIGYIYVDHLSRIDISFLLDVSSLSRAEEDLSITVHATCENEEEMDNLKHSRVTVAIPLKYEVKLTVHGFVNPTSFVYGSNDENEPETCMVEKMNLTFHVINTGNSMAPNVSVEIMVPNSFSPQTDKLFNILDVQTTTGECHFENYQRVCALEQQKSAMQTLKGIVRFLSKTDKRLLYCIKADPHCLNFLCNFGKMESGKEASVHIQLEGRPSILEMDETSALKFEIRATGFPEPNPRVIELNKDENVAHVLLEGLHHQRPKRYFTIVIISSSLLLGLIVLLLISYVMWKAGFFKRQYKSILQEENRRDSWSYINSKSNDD
UniProt P05556: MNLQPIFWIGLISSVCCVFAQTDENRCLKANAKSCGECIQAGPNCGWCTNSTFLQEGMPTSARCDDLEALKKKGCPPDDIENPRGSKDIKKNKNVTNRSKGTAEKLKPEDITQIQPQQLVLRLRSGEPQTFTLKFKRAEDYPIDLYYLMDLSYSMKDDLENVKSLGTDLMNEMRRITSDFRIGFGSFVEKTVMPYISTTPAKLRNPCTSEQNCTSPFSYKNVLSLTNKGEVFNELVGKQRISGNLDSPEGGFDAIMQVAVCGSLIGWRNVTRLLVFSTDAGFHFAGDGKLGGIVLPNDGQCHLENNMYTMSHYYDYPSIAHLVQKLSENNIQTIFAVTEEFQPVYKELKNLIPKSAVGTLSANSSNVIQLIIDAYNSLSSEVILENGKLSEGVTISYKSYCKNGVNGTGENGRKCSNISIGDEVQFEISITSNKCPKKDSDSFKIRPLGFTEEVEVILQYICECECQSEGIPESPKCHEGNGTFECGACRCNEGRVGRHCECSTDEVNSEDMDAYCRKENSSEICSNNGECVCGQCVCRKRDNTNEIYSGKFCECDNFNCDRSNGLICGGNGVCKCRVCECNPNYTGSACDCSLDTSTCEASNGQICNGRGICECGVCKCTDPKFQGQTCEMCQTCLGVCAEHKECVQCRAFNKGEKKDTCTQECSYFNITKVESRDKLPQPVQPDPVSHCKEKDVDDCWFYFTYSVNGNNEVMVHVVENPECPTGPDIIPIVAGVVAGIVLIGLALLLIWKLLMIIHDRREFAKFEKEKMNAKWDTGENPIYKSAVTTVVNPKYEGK
UniProt P10451, residues 17-314: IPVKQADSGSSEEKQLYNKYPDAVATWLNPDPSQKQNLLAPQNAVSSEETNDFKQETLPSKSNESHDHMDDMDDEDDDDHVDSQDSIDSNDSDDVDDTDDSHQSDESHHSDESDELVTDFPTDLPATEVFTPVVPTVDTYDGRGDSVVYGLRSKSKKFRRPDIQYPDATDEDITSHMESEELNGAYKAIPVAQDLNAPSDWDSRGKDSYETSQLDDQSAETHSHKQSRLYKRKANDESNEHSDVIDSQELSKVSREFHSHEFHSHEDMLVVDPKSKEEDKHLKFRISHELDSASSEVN

Target: integrin α4β1 (human (endogenous in HN30-R8)) (UniProt P13612+P05556)
Test: co-IP; Dynabeads M-270 Epoxy coupled with antibody (CD44, integrin αV, β1, β6, β3); RIPA whole cell lysates of CDDP-resistant HN30-R8 cells; 4 °C; SDS-PAGE and Western blotting

binding: binds
Substance: Secreted phosphoprotein 1 (SPP1) (from UniProt P10451 17-314)
